Consider 1 substance from paper PMC4521722.

By UniProt entry, the sequences of proteins in these tests, tags left out.
UniProt P27323: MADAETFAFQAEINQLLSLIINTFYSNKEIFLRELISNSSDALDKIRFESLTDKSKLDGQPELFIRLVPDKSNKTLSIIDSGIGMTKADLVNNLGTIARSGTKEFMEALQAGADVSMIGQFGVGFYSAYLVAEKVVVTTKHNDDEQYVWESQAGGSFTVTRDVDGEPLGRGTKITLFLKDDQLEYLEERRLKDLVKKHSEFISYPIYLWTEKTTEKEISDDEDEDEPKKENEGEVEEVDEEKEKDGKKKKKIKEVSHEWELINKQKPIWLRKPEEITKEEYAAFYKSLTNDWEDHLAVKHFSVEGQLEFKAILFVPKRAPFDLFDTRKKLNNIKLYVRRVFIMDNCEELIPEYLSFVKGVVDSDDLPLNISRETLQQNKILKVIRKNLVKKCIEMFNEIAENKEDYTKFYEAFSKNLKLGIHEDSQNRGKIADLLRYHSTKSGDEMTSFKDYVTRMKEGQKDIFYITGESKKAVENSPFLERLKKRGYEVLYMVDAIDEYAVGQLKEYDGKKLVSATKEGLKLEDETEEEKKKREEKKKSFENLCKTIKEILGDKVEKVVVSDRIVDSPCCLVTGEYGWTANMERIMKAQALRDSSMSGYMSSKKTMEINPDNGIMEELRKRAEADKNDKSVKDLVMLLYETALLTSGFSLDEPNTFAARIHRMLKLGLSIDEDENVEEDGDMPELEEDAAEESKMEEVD

These are yes or no findings as the source states them, for the method shown. Binding seen in cells or lysates may run through a third protein. Some results given as binding are weak or reduced against the parent protein; the word gives no strength. Sequences can lack the tags named with a protein.

The assay has as its target T1, AtPolλ-C-TAP (Arabidopsis thaliana DNA polymerase λ with a C-terminal TAP tag) (Arabidopsis thaliana) (UniProt Q9FNY4).
T1 sequence: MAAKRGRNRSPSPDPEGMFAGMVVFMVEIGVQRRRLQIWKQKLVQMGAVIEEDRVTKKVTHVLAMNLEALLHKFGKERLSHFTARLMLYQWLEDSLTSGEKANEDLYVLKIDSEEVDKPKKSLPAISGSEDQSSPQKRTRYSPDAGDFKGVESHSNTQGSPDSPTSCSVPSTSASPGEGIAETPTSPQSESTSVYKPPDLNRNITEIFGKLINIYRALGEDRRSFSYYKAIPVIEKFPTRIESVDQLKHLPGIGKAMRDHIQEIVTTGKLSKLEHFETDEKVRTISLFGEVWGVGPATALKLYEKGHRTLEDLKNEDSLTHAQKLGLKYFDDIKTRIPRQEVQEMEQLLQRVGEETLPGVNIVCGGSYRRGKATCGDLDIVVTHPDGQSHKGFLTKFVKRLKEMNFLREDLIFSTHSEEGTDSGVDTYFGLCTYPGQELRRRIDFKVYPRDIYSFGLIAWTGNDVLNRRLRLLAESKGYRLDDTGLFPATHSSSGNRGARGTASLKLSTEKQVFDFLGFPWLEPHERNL
Put plainly: co-IP; leaves of Agro-infiltrated N. benthamiana co-expressing AtPolλ-C-TAP and AtHSP90.1-C-TAP, cross-linked with 1% formaldehyde; extract immunoprecipitated with affinity purified anti-AtPolλ polyclonal antibody, probed with anti-HSP90 antibody (1:500).

Regarding “AtHSP90.1-C-TAP (Arabidopsis thaliana HSP90.1 with a C-terminal TAP tag) (from UniProt P27323 1-700)”, the binding entry is “binds”.
